Experimental data from the supplement of paper PMC7877785.
± gives the uncertainty stated by the source. The uncertainty is large for many entries.

Test: self-splicing fitness, log relative to wild type (ln ratio); higher = more splicing; Tetrahymena group I intron in knt gene, E. coli kanamycin selection, DiMSum; sequences stand for … in CUCUCU…GGAGGGAAAAGUUAUCAGGCAUGCACCUGGUAGCUAGUCUUUAAACCAAUAGAUUGCAUCGGUUUAAAAGGCAAGACCGUCAAAUUGCGGGAAAGGGGUCAACAGCCGUUCAGUACCAAGUCUCAGGGGAAACUUUGAGAUGGCCUUGCAAAGGGUAUGGUAAUAAGCUGACGGACAUGGUCCUAACCACGCAGCCAAGUCCUAAGUCAACAGAUCUUCUGUUGAUAUGGAUGCAGUUCACAGACUAAAUGUCGGUCGGGGAAGAUGUAUUCUUCUCAUAAGAUAUAGUCGGACCUCUCCUUAAUGGGAGCUAGCGGAUGAAGUGAUGCAACACUGGAGCCGCUGGGAACUAAUUUGUAUGCGAAAGUAUAUUGAUUAGUUUUGGAGUACUCGUGGUCG
In short: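 Colonies from six replicate transformations of E. coli BL21(DE3) were pooled and amplicon-sequenced on an Illumina HiSeq 2500. The library placed an intron with all eight P1ex-region nucleotides randomised inside the knt kanamycin-resistance gene on pET-22b(+), and cells grew overnight at 37°C or 30°C on LB agar with or without 25 μg/mL kanamycin (plus 100 μg/mL carbenicillin, 50 μM IPTG, 0.2% rhamnose). Fitness is the DiMSum error-weighted combination of wild-type-normalised replicate fold changes, kanamycin versus none.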

## UAUUAGCAAUAUUACGCUAA
30 °C
  self-splicing fitness (ln): -3.13 ± 1

## CAUAAGCAAUAUUACGAUCA
30 °C
  self-splicing fitness (ln): -2.28 ± 0.21
37 °C
  self-splicing fitness (ln): -1.87 ± 0.2

## GAAGAGCAAUAUUACGUGCU
30 °C
  self-splicing fitness (ln): -3.52 ± 0.22
37 °C
  self-splicing fitness (ln): -3.36 ± 0.73

## CAUCAGCAAUAUUACGUUCC
30 °C
  self-splicing fitness (ln): -3.39 ± 1
37 °C
  self-splicing fitness (ln): -2.47 ± 1.1

## GGAUAGCAAUAUUACGCGUC
37 °C
  self-splicing fitness (ln): -2.71 ± 0.76

## CUGCAGCAAUAUUACGCAGC
37 °C
  self-splicing fitness (ln): -1.55 ± 0.66

## UUGUAGCAAUAUUACGCGCU
30 °C
  self-splicing fitness (ln): -2.05 ± 0.16
37 °C
  self-splicing fitness (ln): -0.976 ± 0.11

## AGUGAGCAAUAUUACGCGCU
30 °C
  self-splicing fitness (ln): -2.5 ± 0.69

## UAUUAGCAAUAUUACGGGCC
37 °C
  self-splicing fitness (ln): -1.56 ± 0.52

## UUAGAGCAAUAUUACGGCCU
37 °C
  self-splicing fitness (ln): -3.09 ± 0.6

## GAGCAGCAAUAUUACGGCGA
30 °C
  self-splicing fitness (ln): -1.21 ± 0.099
37 °C
  self-splicing fitness (ln): -0.604 ± 0.11

## AUUAAGCAAUAUUACGAAUC
30 °C
  self-splicing fitness (ln): -3.75 ± 0.52
37 °C
  self-splicing fitness (ln): -0.919 ± 0.72

## AAUGAGCAAUAUUACGCAGU
30 °C
  self-splicing fitness (ln): -2.51 ± 0.2
37 °C
  self-splicing fitness (ln): -3.29 ± 0.31

## AGAGAGCAAUAUUACGACAA
30 °C
  self-splicing fitness (ln): -2.02 ± 1.2

## AGUCAGCAAUAUUACGCUGC
37 °C
  self-splicing fitness (ln): -1.22 ± 0.51

## GGUGAGCAAUAUUACGUUUG
37 °C
  self-splicing fitness (ln): -3.38 ± 0.6

## AUCGAGCAAUAUUACGAGUC
30 °C
  self-splicing fitness (ln): -4.23 ± 0.72
37 °C
  self-splicing fitness (ln): -2.98 ± 0.6

## CUGCAGCAAUAUUACGCCGU
30 °C
  self-splicing fitness (ln): -4.42 ± 0.73

## UUGGAGCAAUAUUACGUCAC
30 °C
  self-splicing fitness (ln): -1.54 ± 0.7

## UGGAAGCAAUAUUACGAUUA
30 °C
  self-splicing fitness (ln): -1.1 ± 0.11
37 °C
  self-splicing fitness (ln): 0.012 ± 0.12

## GGACAGCAAUAUUACGUGCA
30 °C
  self-splicing fitness (ln): -0.37 ± 0.085
37 °C
  self-splicing fitness (ln): -0.64 ± 0.09

## UUGUAGCAAUAUUACGACCC
30 °C
  self-splicing fitness (ln): -2.24 ± 0.68

## ACAGAGCAAUAUUACGUGCC
37 °C
  self-splicing fitness (ln): -3.9 ± 1

## CCAUAGCAAUAUUACGAUAA
30 °C
  self-splicing fitness (ln): -4.43 ± 0.74

## AGUUAGCAAUAUUACGCCCC
37 °C
  self-splicing fitness (ln): -1.13 ± 0.6

## CUUCAGCAAUAUUACGAAAC
37 °C
  self-splicing fitness (ln): -2.51 ± 0.55

## UUAUAGCAAUAUUACGUCGU
37 °C
  self-splicing fitness (ln): -2.69 ± 0.61

## CGGUAGCAAUAUUACGGGUU
30 °C
  self-splicing fitness (ln): -3.51 ± 0.21
37 °C
  self-splicing fitness (ln): -3.67 ± 0.22

## AACCAGCAAUAUUACGGACC
30 °C
  self-splicing fitness (ln): 0.38 ± 0.1
37 °C
  self-splicing fitness (ln): -0.273 ± 0.11

## GUCGAGCAAUAUUACGAACC
30 °C
  self-splicing fitness (ln): -1.87 ± 0.52
37 °C
  self-splicing fitness (ln): -0.304 ± 0.93

## UAAGAGCAAUAUUACGUCGC
30 °C
  self-splicing fitness (ln): -4.32 ± 0.72

## UAUAAGCAAUAUUACGUUUG
30 °C
  self-splicing fitness (ln): -1.84 ± 0.11
37 °C
  self-splicing fitness (ln): -1.61 ± 0.14

## UUAUAGCAAUAUUACGAGCC
37 °C
  self-splicing fitness (ln): -2.56 ± 0.62

## GGCCAGCAAUAUUACGUAAA
30 °C
  self-splicing fitness (ln): -1.26 ± 0.11
37 °C
  self-splicing fitness (ln): -0.35 ± 0.14

## CUAUAGCAAUAUUACGUCGC
37 °C
  self-splicing fitness (ln): -3.56 ± 0.52

## UGGAAGCAAUAUUACGGAAC
30 °C
  self-splicing fitness (ln): -1.67 ± 0.91
37 °C
  self-splicing fitness (ln): 0.454 ± 0.58

## UUCUAGCAAUAUUACGUUGG
37 °C
  self-splicing fitness (ln): -2.94 ± 0.61

## GCACAGCAAUAUUACGAAUC
30 °C
  self-splicing fitness (ln): -1.15 ± 0.076
37 °C
  self-splicing fitness (ln): -0.69 ± 0.079

## UUUGAGCAAUAUUACGCCAA
30 °C
  self-splicing fitness (ln): -4.36 ± 0.72

## CUGGAGCAAUAUUACGAAAC
30 °C
  self-splicing fitness (ln): -3.01 ± 0.56
37 °C
  self-splicing fitness (ln): -1.08 ± 0.83

## AUUGAGCAAUAUUACGGGGU
30 °C
  self-splicing fitness (ln): -3.33 ± 0.25
37 °C
  self-splicing fitness (ln): -3.44 ± 0.27

## GGGUAGCAAUAUUACGAGCC
30 °C
  self-splicing fitness (ln): -3.48 ± 1.1
37 °C
  self-splicing fitness (ln): -0.693 ± 1.4

## UCAGAGCAAUAUUACGCUAA
30 °C
  self-splicing fitness (ln): -3 ± 0.58

## UCAGAGCAAUAUUACGGUCC
37 °C
  self-splicing fitness (ln): -2.51 ± 0.76

## CGUGAGCAAUAUUACGCUUU
30 °C
  self-splicing fitness (ln): -2.54 ± 0.35
37 °C
  self-splicing fitness (ln): -1.98 ± 0.28

## UGCGAGCAAUAUUACGGUGC
30 °C
  self-splicing fitness (ln): -3.64 ± 0.53

## CGUUAGCAAUAUUACGAGAA
30 °C
  self-splicing fitness (ln): -1.93 ± 0.49
37 °C
  self-splicing fitness (ln): -1.45 ± 0.46

## CUUUAGCAAUAUUACGUCGA
30 °C
  self-splicing fitness (ln): -4.04 ± 1.1

## CCACAGCAAUAUUACGCUAC
30 °C
  self-splicing fitness (ln): -3.95 ± 0.6
37 °C
  self-splicing fitness (ln): -2.33 ± 0.56

## GCGGAGCAAUAUUACGACCG
30 °C
  self-splicing fitness (ln): -1.73 ± 0.91
37 °C
  self-splicing fitness (ln): -1.85 ± 0.81

## UUUUAGCAAUAUUACGAGAU
30 °C
  self-splicing fitness (ln): -3.03 ± 1.1

## GCGGAGCAAUAUUACGGGAC
30 °C
  self-splicing fitness (ln): -2.82 ± 0.51
37 °C
  self-splicing fitness (ln): -0.73 ± 1

## CUGUAGCAAUAUUACGCUCC
37 °C
  self-splicing fitness (ln): -1.39 ± 1.2

## GAGGAGCAAUAUUACGGCCA
30 °C
  self-splicing fitness (ln): -1.78 ± 0.73
37 °C
  self-splicing fitness (ln): -1.14 ± 0.58

## AUCUAGCAAUAUUACGUCUU
30 °C
  self-splicing fitness (ln): -0.776 ± 0.077
37 °C
  self-splicing fitness (ln): 0.147 ± 0.1

## GGAUAGCAAUAUUACGGCAG
30 °C
  self-splicing fitness (ln): -3.63 ± 0.74
37 °C
  self-splicing fitness (ln): -2.18 ± 0.22

## AUCGAGCAAUAUUACGACCG
30 °C
  self-splicing fitness (ln): -3.85 ± 0.6

## UAGAAGCAAUAUUACGUAAC
30 °C
  self-splicing fitness (ln): -2.25 ± 0.84
37 °C
  self-splicing fitness (ln): -0.493 ± 0.53

## AUUCAGCAAUAUUACGAGUA
30 °C
  self-splicing fitness (ln): -1.81 ± 0.2
37 °C
  self-splicing fitness (ln): -1.24 ± 0.18

## AAGGAGCAAUAUUACGACCG
37 °C
  self-splicing fitness (ln): -2.29 ± 0.56

## AGUAAGCAAUAUUACGAGUC
30 °C
  self-splicing fitness (ln): -2.96 ± 0.23
37 °C
  self-splicing fitness (ln): -1.45 ± 0.17

## CUCGAGCAAUAUUACGCUCA
30 °C
  self-splicing fitness (ln): -1.96 ± 0.27
37 °C
  self-splicing fitness (ln): -2.15 ± 0.45

## UGAGAGCAAUAUUACGUGAC
30 °C
  self-splicing fitness (ln): -3.28 ± 0.6
37 °C
  self-splicing fitness (ln): -2.24 ± 0.66

## GAAGAGCAAUAUUACGCUAA
30 °C
  self-splicing fitness (ln): -4.73 ± 1

## GCGGAGCAAUAUUACGAAGU
30 °C
  self-splicing fitness (ln): -3.58 ± 0.43
37 °C
  self-splicing fitness (ln): -2.08 ± 0.36

## AGUAAGCAAUAUUACGCCCA
30 °C
  self-splicing fitness (ln): -1.19 ± 0.37
37 °C
  self-splicing fitness (ln): -1.38 ± 0.5

## GCACAGCAAUAUUACGGGCC
30 °C
  self-splicing fitness (ln): -4.88 ± 0.58

## CCAGAGCAAUAUUACGCACU
37 °C
  self-splicing fitness (ln): -3.59 ± 0.73
